Measurements reported in PubChem BioAssay AID504791 (Drosophila RNAi Screening Center, 2011)
Assay: 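Genes of the fly required for silencing by miRNA, siRNA or endo-siRNA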 (primary screen). Cells: Drosophila S2-derived reporter cells. Reagent: long dsRNA against Drosophila genes, about 150-250 ng dsRNA per well (siRNA assay); about 80-120 ng (miRNA assay). Time to read-out: about 5 days (siRNA assay); about 4 days (miRNA assay). Treatment: copper sulfate induction of reporters: 25 µM (siRNA assay); 200 mM stated (miRNA assay), 1-2 days before reading. Measured: 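Per-well ratio of Renilla over firefly light, expressed relative to that plate's average ratio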. Active means: 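First-pass picks had plate-scaled ratios over 1.5 for the siRNA assay, over 1.6 for the miRNA assay, or under 0.6; two distinct dsRNAs had to score alike on retest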.
The screen tested about 23,000 reagents; shown is a random part of those with a known target gene and a result. In the full data, 199 (0.86%) were called active. 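Plate-scaled ratios behind the calls are not deposited; printed light signals are raw; many rows marked increased or decreased are still called inactive.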 Not stated in the record: the direction of the score.

CG9114 [DRSC20155]: stable assay Renilla, run 1 (luminescence) = 6416; stable assay firefly, run 1 (luminescence) = 5.80e5; activity call = inactive
CstF50 [DRSC15434]: stable assay Renilla, run 1 (luminescence) = 10358; stable assay firefly, run 1 (luminescence) = 5.65e5; activity call = inactive
CG9568 [DRSC03265]: stable assay Renilla, run 1 (luminescence) = 5214; stable assay firefly, run 1 (luminescence) = 4.91e5; activity call = inactive
Cyp318a1 [DRSC19784]: stable assay Renilla, run 1 (luminescence) = 5554; stable assay firefly, run 1 (luminescence) = 2.94e5; activity call = inactive
CG43861 [DRSC02308]: stable assay Renilla, run 1 (luminescence) = 6434; stable assay firefly, run 1 (luminescence) = 3.94e5; activity call = inactive
alpha-Cat [DRSC11917]: stable assay Renilla, run 1 (luminescence) = 5388; stable assay firefly, run 1 (luminescence) = 3.51e5; activity call = inactive
Duox [DRSC00571]: stable assay Renilla, run 1 (luminescence) = 7139; stable assay firefly, run 1 (luminescence) = 4.38e5; activity call = inactive
Taf6 [DRSC11299]: stable siRNA reporter change = reporter ratio lowered past the hit cutoff; stable assay Renilla, run 1 (luminescence) = 7396; stable assay firefly, run 1 (luminescence) = 6.56e5; activity call = inactive
RpS10a [DRSC14161]: stable assay Renilla, run 1 (luminescence) = 7195; stable assay firefly, run 1 (luminescence) = 3.87e5; activity call = inactive
CG12589 [DRSC12215]: stable assay Renilla, run 1 (luminescence) = 8654; stable assay firefly, run 1 (luminescence) = 4.00e5; activity call = inactive
vg [DRSC07715]: stable assay Renilla, run 1 (luminescence) = 4339; stable assay firefly, run 1 (luminescence) = 3.99e5; activity call = inactive
vg [DRSC22669]: stable assay Renilla, run 1 (luminescence) = 4107; stable assay firefly, run 1 (luminescence) = 4.63e5; activity call = inactive
LIMK1 [DRSC19811]: stable assay Renilla, run 1 (luminescence) = 7099; stable assay firefly, run 1 (luminescence) = 2.99e5; activity call = inactive
Bka [DRSC02757]: stable assay Renilla, run 1 (luminescence) = 6874; stable assay firefly, run 1 (luminescence) = 4.67e5; activity call = inactive
CG13245 [DRSC02243]: stable assay Renilla, run 1 (luminescence) = 1.42e5; stable assay firefly, run 1 (luminescence) = 1.63e6; activity call = inactive
CG17930 [DRSC15292]: stable assay Renilla, run 1 (luminescence) = 7895; stable assay firefly, run 1 (luminescence) = 3.08e5; activity call = inactive
CG42360 [DRSC04224]: miRNA reporter change = reporter ratio raised past the hit cutoff; stable assay Renilla, run 1 (luminescence) = 7942; stable assay firefly, run 1 (luminescence) = 3.26e5; activity call = inactive

Part of the list above in another layout:
target	DRSC id	stable siRNA reporter change	miRNA reporter change	stable assay Renilla, run 1 (luminescence)	stable assay firefly, run 1 (luminescence)	activity call
CstF50	DRSC15434			10358	5.65e5	inactive
CG9568	DRSC03265			5214	4.91e5	inactive

More records follow.
CG10307 [DRSC04057]: stable assay Renilla, run 1 (luminescence) = 12754; stable assay firefly, run 1 (luminescence) = 7.14e5; activity call = inactive
CG34376 [DRSC14695]: stable assay Renilla, run 1 (luminescence) = 5723; stable assay firefly, run 1 (luminescence) = 3.81e5; activity call = inactive
CG34376 [DRSC14696]: stable assay Renilla, run 1 (luminescence) = 8339; stable assay firefly, run 1 (luminescence) = 4.05e5; activity call = inactive
CG34376 [DRSC14701]: stable assay Renilla, run 1 (luminescence) = 8663; stable assay firefly, run 1 (luminescence) = 4.37e5; activity call = inactive
Or85c [DRSC16766]: stable assay Renilla, run 1 (luminescence) = 6240; stable assay firefly, run 1 (luminescence) = 3.54e5; activity call = inactive
CG13085 [DRSC02189]: stable assay Renilla, run 1 (luminescence) = 6532; stable assay firefly, run 1 (luminescence) = 3.65e5; activity call = inactive
CG13362 [DRSC17897]: stable assay Renilla, run 1 (luminescence) = 7002; stable assay firefly, run 1 (luminescence) = 3.73e5; activity call = inactive
CG6845 [DRSC08576]: stable assay Renilla, run 1 (luminescence) = 7738; stable assay firefly, run 1 (luminescence) = 4.59e5; activity call = inactive
dare [DRSC07602]: stable assay Renilla, run 1 (luminescence) = 8477; stable assay firefly, run 1 (luminescence) = 5.83e5; activity call = inactive
CG12391 [DRSC06147]: stable assay Renilla, run 1 (luminescence) = 8333; stable assay firefly, run 1 (luminescence) = 5.27e5; activity call = inactive
Irk3 [DRSC02047]: stable assay Renilla, run 1 (luminescence) = 7291; stable assay firefly, run 1 (luminescence) = 5.44e5; activity call = inactive
